Results are given in words; binding and its absence hold for the method and conditions named. Binding seen in cells or lysates may run through a third protein. A yes stands for co-enrichment or nearness to the bait. Other partners may have been found. Sequences can lack the tags named with a protein.
Biological target: T1, Dcp1-myc (S. cerevisiae) (UniProt Q12517)
T1 sequence: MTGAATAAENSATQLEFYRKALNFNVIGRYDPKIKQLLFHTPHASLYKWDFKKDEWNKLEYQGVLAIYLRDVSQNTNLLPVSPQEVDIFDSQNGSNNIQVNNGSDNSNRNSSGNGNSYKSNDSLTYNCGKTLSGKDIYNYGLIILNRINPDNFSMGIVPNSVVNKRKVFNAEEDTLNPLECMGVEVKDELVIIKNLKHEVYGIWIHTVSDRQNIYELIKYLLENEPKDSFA
Assay: affinity purification with mass spectrometry; cells unstressed or glucose-depleted (10 min for Dcp1-myc, 60 min for Pbp1-myc), cross-linked with 0.8% formaldehyde; 20,000 g pellet of the lysate in Blob100 buffer (20 mM Tris-HCl pH 8, 100 mM NaCl, 1 mM MgCl2, 0.5% NP40) on anti-c-Myc magnetic beads, eluted with Myc peptide; label-free LC-MS/MS; hits are the proteins that cluster (Mfuzz) with the tagged bait across IP, pellet, supernatant, total and unbound fractions

B1: Nam7 (protein, UniProt P30771 1-971)
chain: MVGSGSHTPYDISNSPSDVNVQPATQLNSTLVEDDDVDNQLFEEAQVTETGFRSPSASDNSCAYCGIDSAKCVIKCNSCKKWFCNTKNGTSSSHIVNHLVLSHHNVVSLHPDSDLGDTVLECYNCGRKNVFLLGFVSAKSEAVVVLLCRIPCAQTKNANWDTDQWQPLIEDRQLLSWVAEQPTEEEKLKARLITPSQISKLEAKWRSNKDATINDIDAPEEQEAIPPLLLRYQDAYEYQRSYGPLIKLEADYDKQLKESQALEHISVSWSLALNNRHLASFTLSTFESNELKVAIGDEMILWYSGMQHPDWEGRGYIVRLPNSFQDTFTLELKPSKTPPPTHLTTGFTAEFIWKGTSYDRMQDALKKFAIDKKSISGYLYYKILGHQVVDISFDVPLPKEFSIPNFAQLNSSQSNAVSHVLQRPLSLIQGPPGTGKTVTSATIVYHLSKIHKDRILVCAPSNVAVDHLAAKLRDLGLKVVRLTAKSREDVESSVSNLALHNLVGRGAKGELKNLLKLKDEVGELSASDTKRFVKLVRKTEAEILNKADVVCCTCVGAGDKRLDTKFRTVLIDESTQASEPECLIPIVKGAKQVILVGDHQQLGPVILERKAADAGLKQSLFERLISLGHVPIRLEVQYRMNPYLSEFPSNMFYEGSLQNGVTIEQRTVPNSKFPWPIRGIPMMFWANYGREEISANGTSFLNRIEAMNCERIITKLFRDGVKPEQIGVITPYEGQRAYILQYMQMNGSLDKDLYIKVEVASVDAFQGREKDYIILSCVRANEQQAIGFLRDPRRLNVGLTRAKYGLVILGNPRSLARNTLWNHLLIHFREKGCLVEGTLDNLQLCTVQLVRPQPRKTERPMNAQFNVESEMGDFPKFQDFDAQSMVSFSGQIGDFGNAFVDNTELSSYINNEYWNFENFKSAFSQKQNRNEIDDRNLYQEEASHLNSNFARELQREEQKHELSKDFSNLGI
For B1, the binding was “binds”.

B2: Rpc19 (protein, UniProt P28000 1-142)
chain: MTEDIEQKKTATEVTPQEPKHIQEEEEQDVDMTGDEEQEEEPDREKIKLLTQATSEDGTSASFQIVEEDHTLGNALRYVIMKNPDVEFCGYSIPHPSENLLNIRIQTYGETTAVDALQKGLKDLMDLCDVVESKFTEKIKSM
With B2 the binding was “binds”.

B3: Sro9 (protein, UniProt P25567 1-434)
chain: MSAETAAANTATAPVPEVQEQESSKSKQVNLTPAPLPTSSPWKLAPTEIPVSTISIEDLDATRKKKNRTPTPKSSTATKWVPIKASITVSGTKRSGSKNGASNGNSNKSKNNKTAASSTSSSNANRKKKHHQHNAKKQQQMKKDGFESAVGEEDSKDATSQENGQSTQQQQPPHHRNHHHSHHHNSNGPQRRKFHNSNNAGMPQNQGFPPQFKPYQGRNARNNNNNRSKYHNHFHHNQQHPQQPMVKLQQQFYPVQPVLMAINNIARQIEYYFSEENLTVDNYLRSKLSKDGFAPLSLISKFYRVVNMSFGGDTNLILAALREIVANEAATVNVAEGTLAAKEGDNVTGEAKEPSPLDKYFVRSKSWSNWLPETFETEINIEKELVGDALDQFMISLPPVPQQEEESSTELASQEQETKEDSAPVAAGESESSL
For B3, the binding was “binds”.

B4: Smi1 (protein, UniProt P32566 1-505)
chain: MDLFKRKVKEWVYSLSTDDHYAEYNPDETPTFNMGKRLNSNNGQVNPSQMHLNSVDEEMSMGFQNGVPSNEDINIDEFTSTESNDGVSETLLAWRHIDFWTSEHNPDLNATLSDPCTQNDITHAEEDLEVSFPNPVKASFKIHDGQEDLESMTGTSGLFYGFQLMTLDQVVAMTQAWRNVAKNLNKRSQQGLSHVTSTGSSSSMERLNGNKFKLPNIPDQKSIPPNAVQPVYAHPAWIPLITDNAGNHIGVDLAPGPNGKYAQIITFGRDFDTKFVIAENWGEFLLSFANDLEAGNWYLVDDNDDYFSGDGELVFRDKKSNGPIQDYFEVLKRRTWIKYQENLRSQQQKSQPDTSLQEQKYVPASQKKVAAEQPSTLNAESIKGEDSGSADVQSVQDHESVKIVKTEPSEAETTTVNTESLGQAEHEIKADNVDIKQESERKEDEKQPKVEEKEHVENEHVTESAKKDDDVNKQTEEMNKKEENEIRSDDAKVEEAREEFENIAL
In the case of B4, the binding is reported as “binds”.

Reference: article PMC8782181
